Test results taken from PubChem BioAssay AID540303 (National Center for Advancing Translational Sciences (NCATS), 2011).
The whole screen tested about 330,000 compounds, of which about 1,000 (0.3%) were called active. Inconclusive results, whose numbers are uncertain, are shown with a selection of clear calls. The call rests on the fitted dose curve; in most records, active means well fitted inhibition curve with a large enough effect; inconclusive means small, poorly fitted or top-dose-only effect; inactive means no such curve, though single readings can be large or run the other way; tested in mouse RAW 264.7 cells. Potencies of inconclusive entries are doubtful fits and often do not repeat.

Experiment: qHTS for Inhibitors of Cell Surface uPA Generation; further: nearly all actives have a fitted effect of over 55% in size
Details: cell surface uPA generation assay; series mostly up to 38.3 µM; activity change, negative = inhibition: at the top concentration
How it was run: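 Validation set in qHTS format. RAW 264.7 cells were pre-plated overnight and then exposed to compounds (up to 38.3 uM final) for 24 h at 37 C in 5% CO2, followed by a luminescent ATP-Lite measurement.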
On the % scale 0 is the no-effect control and ±100 the full control effect; potency means the concentration at half of the fitted maximal effect.

| SMILES | activity change, negative = inhibition | Potency |
| --- | --- | --- |
| CCc1ccc(C(=O)CSc2nc(N)cc(=O)[nH]2)cc1 | inactive: 1.26% | – |
| C=CCn1c2ccccc2c(=O)c2cc(C#CC[C@@H](C)O)ccc21 | – | active: 3.98 µM |
| O=C(COC(=O)c1cc(=O)[nH]c2ccccc12)Nc1ccccc1F | inactive: 5.25% | – |
| CSc1cccc(NS(=O)(=O)c2ccc3c(c2)CCN3C(C)=O)c1 | – | inconclusive: 3.16 µM [inhibitor, partial curve] |
| CCc1cc(C=C(Cl)Cl)oc(=O)c1C | – | inconclusive: 10 µM [inhibitor, partial curve] |
| CC(=O)Nc1sc(N/N=C/c2ccc(C)cc2)nc1-c1ccc(C)cc1 | – | inconclusive: 5.01 µM [inhibitor, partial curve] |
| O=C(CCN1CCN(c2ccccc2F)CC1)c1ccc(Br)cc1 | inactive: -1.37% | – |
| CN(C(=O)C1CCN(S(=O)(=O)c2cccs2)CC1)c1ccccc1 | inactive: -0.141% | – |
| CN(CC(=O)NC(=O)NCc1ccccc1)CC(=O)Nc1ccc(Cl)c(Cl)c1 | – | inconclusive: 0.0079 µM [inhibitor, full curve, poor fit] |
| CCCN1C(=O)C(=O)c2cc(C)ccc21 | – | active: 3.16 µM |
| O=[N+]([O-])c1cc(-c2ncccn2)c([N+](=O)[O-])s1 | – | inconclusive: 12.6 µM [inhibitor, single point] |
| O=S(=O)(c1c(Cl)sc(Cl)c1Br)N1CCCC1 | – | inconclusive: 2.82 µM [inhibitor, partial curve, poor fit] |
| CCN(CC)CCNc1nc2c(c(=O)n(C)c(=O)n2C)n1C/C=C(/C)Cl | inactive: 0.217% | – |
| Cc1nc2ccc(NS(=O)(=O)c3ccc(F)c(C)c3)cc2[nH]1 | – | inconclusive: 11.2 µM [inhibitor, single point] |
| CCN(CC)CCNC(=O)C1CCN(S(=O)(=O)c2c(C)noc2/C=C/c2ccccc2F)CC1 | – | inconclusive: 10 µM [inhibitor, single point] |
| Cn1c2ccccc2c(=O)c2ccc(C#Cc3ccc(N)cc3)cc21 | – | active: 6.31 µM |
| O=C(Nc1nccs1)c1cc([N+](=O)[O-])ccc1Cl | – | inconclusive: 11.2 µM [inhibitor, partial curve, poor fit] |
| CC(C(=O)NCc1cccs1)N1CCN(S(=O)(=O)c2ccc3c(c2)OCCCO3)CC1 (stereo not given) | – | inconclusive: 11.2 µM [inhibitor, single point] |
| Cc1nnc(N2C(=O)C(O)=C(C(=O)c3ccco3)C2c2ccc(F)cc2)s1 (stereo not given) | inactive: 4.36% | – |
| COc1ccc(-c2cc3nc(-c4ccccc4)cc(N4CCCC(O)C4)n3n2)cc1 (stereo not given) | inactive: 34.1% | – |
| O=C(NCc1ccccn1)c1c(-c2ccccc2)sc2ccccc12 | – | inconclusive: 1.12 µM [inhibitor, full curve] |
| CC(NC(=O)NC1CCCCC1)C(c1cccs1)N1CCN(c2ccccc2)CC1 (stereo not given) | – | active: 10 µM |
| CCC(C)CCN1C(Nc2ccccc2)=NC[C@@H]1CC(C)C (stereo not given in full) | – | inconclusive: 12.6 µM [inhibitor, single point] |
| CC12CCC3c4ccc(O)cc4CCC3C1CCC2=O (stereo not given) | – | inconclusive: 7.94 µM [inhibitor, single point] |

| SMILES | activity change, negative = inhibition | Potency |
| --- | --- | --- |
| CCc1c(C(C)S(=O)(=O)c2ccc(C)cc2)[nH]c(=O)n1-c1ccc(C)cc1 (stereo not given) | inactive: -0.593% | – |
| CC(C)COc1cccc(C(=O)NC(=S)Nc2cccc(NC(=O)c3ccccc3Cl)c2)c1 | inactive: 5.89% | – |
| CC(C)(O)CN(C(=O)c1ccc([N+](=O)[O-])cc1)C1CCCC1 | inactive: 4% | – |
| O=C(NCC1CC1)c1ccc2c3n(nc2c1)-c1ccccc1CO3 | – | active: 1.41 µM |
| COC(=O)C1=C(C)N(Cc2ccco2)C(=O)N[C@H]1c1cccc(C(F)(F)F)c1 | inactive: -5.64% | – |
| Cc1ccc(S(=O)(=O)CCC(=O)N(CCCN2CCOCC2)c2nc3ccccc3s2)cc1 | – | inconclusive: 5.62 µM [inhibitor, partial curve, poor fit] |
| O=C(c1ccncc1)N1c2ccccc2Sc2ccccc21 | – | inconclusive: 14.1 µM [inhibitor, partial curve, poor fit] |
| C[n+]1c2cc(N)ccc2cc2ccc(N)cc21 | – | inconclusive: 1.26 µM [inhibitor, full curve, poor fit] |
| COC(=O)C1=C(C)NC(C)=C(C(=O)O[C@@H]2CCCN(Cc3ccccc3)C2)[C@@H]1c1cccc([N+](=O)[O-])c1 | – | inconclusive: 12.6 µM [inhibitor, single point] |
| O=C1[C@@H]2[C@H]3CC[C@H](C3)[C@@H]2C(=O)N1O | inactive: 2.55% | – |
| Cc1oc2c(O)c(O)ccc2c(=O)c1-c1ccccc1 | – | inconclusive: 7.08 µM [inhibitor, single point] |
| O=C1NC(c2ccc(Cl)c([N+](=O)[O-])c2)Nc2ccccc21 (stereo not given) | – | inconclusive: 2.51 µM [inhibitor, full curve, poor fit] |
| Cc1ccc(-c2cc(=O)c3cc(F)ccc3[nH]2)cc1 | – | inconclusive: 7.08 µM [inhibitor, partial curve, poor fit] |
| C=C(C)C1(O)OC(=O)C=C1OC (stereo not given) | – | inconclusive: 10 µM [inhibitor, partial curve, poor fit] |
| Cn1c(NC(=O)CCc2ccccc2)cc(=O)n(C)c1=O | – | inconclusive: 0.891 µM [inhibitor, full curve, poor fit] |
| CCN1C(=O)[C@@H]2[C@@H](c3ccc(-c4ccc(Cl)c(Cl)c4)c(OC)c3)N3CCC[C@@]3(C(=O)OC)[C@@H]2C1=O | – | inconclusive: 12.6 µM [inhibitor, single point] |
| CC(=O)NC(CCS(C)(=O)=O)C(=O)Nc1ccc(Cl)c(Cl)c1 (stereo not given) | – | inconclusive: 3.98 µM [inhibitor, partial curve] |
| C=C1CCN([C@@H](Cc2ccccc2)C(=O)NCc2ccc(Cl)c(Cl)c2)S(=O)(=O)c2ccccc21 | – | inconclusive: 12.6 µM [inhibitor, single point] |
| COc1ccc2sc(NC(=O)c3ccco3)nc2c1 | – | inconclusive: 6.31 µM [inhibitor, partial curve, poor fit] |
| COc1ccc(/C=N/NC(=O)c2ccoc2C)cc1OC | inactive: -0.0466% | – |
| COCCn1c(SCC(=O)N2CCc3ccccc32)nc2c(c1=O)SC(C)C2 (stereo not given) | – | inconclusive: 10 µM [inhibitor, partial curve, poor fit] |
| COc1ccc(N2C(=O)c3ccccc3NC23CCCCC3)cc1 | – | inconclusive: 3.55 µM [inhibitor, partial curve, poor fit] |
| CC(C)CNC(=O)c1ccccc1SCC(=O)NC12CC3CC(CC(C3)C1)C2 | – | inconclusive: 0.316 µM [inhibitor, partial curve, poor fit] |
| COc1cccc(N(C(=O)c2ccco2)c2nc(-c3sc(NC(=O)c4ccco4)nc3C)cs2)c1 | – | inconclusive: 1.12 µM [inhibitor, full curve, poor fit] |

| SMILES | activity change, negative = inhibition | Potency |
| --- | --- | --- |
| Cc1ccc2nc(C)c(C(=O)N/N=C/c3cccs3)n2c1 | – | inconclusive: 14.1 µM [inhibitor, single point] |
| CCCCC[C@H](O)/C=C/C1C(=O)C=C[C@H]1C/C=C\CCCC(=O)OC (stereo not given in full) | – | inconclusive: 12.6 µM [inhibitor, partial curve, poor fit] |
| O=C(NC(=S)NCc1ccncc1)c1ccccc1 | inactive: 0.811% | – |
| Cc1ccc(/C=N/Nc2nc3ccccc3[nH]2)s1 | – | inconclusive: 8.91 µM [inhibitor, partial curve, poor fit] |
| Cc1cc(O)cc2c(=O)c3ccccc3sc12 | inactive: 1.03% | – |
| Cc1cc2nc(Sc3c([N+](=O)[O-])nc(C)n3Cc3ccccc3)[nH]c2cc1C | inactive: -9.37% | – |
| CCC(CO)Oc1cc(NCc2ccccc2O)c2ncn(C(C)C)c2c1 (stereo not given) | inactive: 10.1% | – |
| COc1cc2c(cc1OC)C(c1cccc(Br)c1)NC(=O)C2 (stereo not given) | – | inconclusive: 31.6 µM [inhibitor, partial curve, poor fit] |
| CC(=O)N(CCc1ccccc1C)Cc1cc2ccc(C)cc2[nH]c1=O | inactive: 1.38% | – |
| O=C(CSc1nnc(C2CC2)n1C1CC1)c1ccccc1F | – | inconclusive: 22.4 µM [inhibitor, single point] |
| CC1CCCN(CCCCOc2cccc(Br)c2)C1 (stereo not given) | inactive: 5.03% | – |
| COc1ccc(-c2coc3cc(OC4OC(CO)C(O)C(O)C4O)ccc3c2=O)cc1 (stereo not given) | – | inconclusive: 8.91 µM [inhibitor, partial curve, poor fit] |
| NCCCNCCCCNCCCN | – | inconclusive: 10 µM [inhibitor, single point] |
| CCCCn1cnc2c(oc3nc4c(cc32)CCCC4)c1=O | – | inconclusive: 4.47 µM [inhibitor, partial curve, poor fit] |
| CC(C)(C)c1csc(NC2=NS(=O)(=O)c3ccccc32)n1 | – | inconclusive: 4.47 µM [inhibitor, partial curve] |
| COc1ccc(C(C)=O)cc1Cn1c(=O)cc(C)[nH]c1=O | inactive: -3.48% | – |
| CC(C)Oc1ccc(C(=O)CCN2CCOCC2)cc1 | – | inconclusive: 25.1 µM [inhibitor, single point] |
| O=C(Nc1ccc(N2CCN(C(=O)c3ccccc3)CC2)cc1)c1ccc2c(c1)OCCO2 | – | inconclusive: 12.6 µM [inhibitor, single point] |
| CCN(CC)C(=O)c1ccc(COc2ccc(Cl)c(C)c2)o1 | inactive: -2.19% | – |
| Cc1nc(NC(C)c2ccccc2)sc1C(=O)Nc1ccccc1 (stereo not given) | – | inconclusive: 3.98 µM [inhibitor, partial curve] |
| Cc1cc(=O)oc2cc(Oc3ccc([N+](=O)[O-])cc3[N+](=O)[O-])ccc12 | inactive: -9.59% | – |
| Cn1cc(C(C[N+](=O)[O-])c2ccccc2)c2ccccc21 (stereo not given) | – | inconclusive: 2.82 µM [inhibitor, partial curve, poor fit] |

Quoted from the listing:
Entry for `CC(C)Oc1ccc(C(=O)CCN2CCOCC2)cc1` under Potency: inconclusive: 25.1 µM [inhibitor, single point]
Entry for `CSc1cccc(NS(=O)(=O)c2ccc3c(c2)CCN3C(C)=O)c1` under Potency: inconclusive: 3.16 µM [inhibitor, partial curve]
Entry for `O=C(NC(=S)NCc1ccncc1)c1ccccc1` under activity change, negative = inhibition: inactive: 0.811%
Entry for `CCc1c(C(C)S(=O)(=O)c2ccc(C)cc2)[nH]c(=O)n1-c1ccc(C)cc1` (stereo not given) under activity change, negative = inhibition: inactive: -0.593%
